These are yes or no findings as the source states them, for the method shown. In cells and extracts the contact can be indirect. Some binding calls cover weakened binding; strength is not graded here.
Columns and labels:
[1] = target: K-Ras (activated, GTP-loaded) (human (endogenous in MCF-7-TamR)) (UniProt P01116); assay: pull-down; complex of activated (GTP-loaded) Ras precipitated from total lysate of MCF-7-TamR cells with GST-Raf1-RBD beads, NgBR found in it by western blot; cells with or without 100 ng/mL EGF for 5 min, NS siRNA or siNgBR
[2] = target: GST-tagged Ras-binding domain of Raf-1 (GST-Raf-1 RBD beads) (UniProt P04049); assay: pull-down; 10 uL GST-Raf1-RBD beads incubated with 500 ug total lysate of MCF-7-TamR cells overnight at 4 °C, washed five times, western blot; cells transfected with NS siRNA or siNgBR, with or without 100 ng/mL EGF for 5 min; only the target purified

binding [1]: binds
binding [2]: binds
B1: Nogo-B receptor (NgBR) (protein, UniProt Q96E22 1-293)
chain: MTGLYELVWRVLHALLCLHRTLTSWLRVRFGTWNWIWRRCCRAASAAVLAPLGFTLRKPPAVGRNRRHHRHPRGGSCLAAAHHRMRWRADGRSLEKLPVHMGLVITEVEQEPSFSDIASLVVWCMAVGISYISVYDHQGIFKRNNSRLMDEILKQQQELLGLDCSKYSPEFANSNDKDDQVLNCHLAVKVLSPEDGKADIVRAAQDFCQLVAQKQKRPTDLDVDTLASLLSSNGCPDPDLVLKFGPVDSTLGFLPWHIRLTEIVSLPSHLNISYEDFFSALRQYAACEQRLGK

From publication PMC6134690
